Data: patent publication US8492328B2, “Biomarkers and methods for determining sensitivity to insulin growth factor-1 receptor modulators” (Bristol-Myers Squibb Company, priority 2007, dated 2013)
“Also recorded” adds a separate entry of the source. For at least one compound, name, drawing or mass did not settle the structure.

Test system: IGF1R-sal, Colo205, RD1, HT-29, WiDr, GEO, MDA-PCa-2b, MCF-7, H3396, N-87, BT474, and SKBR3 cell lines
Assay: Drug combination study (Dilution of Ratios) in cellular proliferation assays
Details: in vitro combination with compound 1, multiple cell lines, analyzed by Isobolograms

Cc1nc(Nc2ncc(C(=O)Nc3c(C)cccc3Cl)s2)cc(N2CCN(CCO)CC2)n1 [dasatinib]
Combination Result: synergistic effect; also recorded: synergy effects
